Numbering of substitutions follows the chain as printed. These are yes or no findings as the source states them, for the method shown. Binding seen in cells or lysates may run through a third protein. Some results given as binding are weak or reduced against the parent protein; the word gives no strength. Where a sequence is shown, tags or fusion partners need not be part of it.
Legend:
NBCe1-B-eGFP [1] = biological target: T1, NBCe1-B-eGFP (UniProt Q9Y6R1); assay: FRET or BRET; live HEK293T cells co-transfected with fluorescent-tagged constructs for 16-18 h; confocal FRET imaging at 37 °C; FRET ratios; some cells stimulated with forskolin/IBMX, co-expressing E-Syt3, ORP5 or ORP8, or depleted of ORP5
T1 sequence: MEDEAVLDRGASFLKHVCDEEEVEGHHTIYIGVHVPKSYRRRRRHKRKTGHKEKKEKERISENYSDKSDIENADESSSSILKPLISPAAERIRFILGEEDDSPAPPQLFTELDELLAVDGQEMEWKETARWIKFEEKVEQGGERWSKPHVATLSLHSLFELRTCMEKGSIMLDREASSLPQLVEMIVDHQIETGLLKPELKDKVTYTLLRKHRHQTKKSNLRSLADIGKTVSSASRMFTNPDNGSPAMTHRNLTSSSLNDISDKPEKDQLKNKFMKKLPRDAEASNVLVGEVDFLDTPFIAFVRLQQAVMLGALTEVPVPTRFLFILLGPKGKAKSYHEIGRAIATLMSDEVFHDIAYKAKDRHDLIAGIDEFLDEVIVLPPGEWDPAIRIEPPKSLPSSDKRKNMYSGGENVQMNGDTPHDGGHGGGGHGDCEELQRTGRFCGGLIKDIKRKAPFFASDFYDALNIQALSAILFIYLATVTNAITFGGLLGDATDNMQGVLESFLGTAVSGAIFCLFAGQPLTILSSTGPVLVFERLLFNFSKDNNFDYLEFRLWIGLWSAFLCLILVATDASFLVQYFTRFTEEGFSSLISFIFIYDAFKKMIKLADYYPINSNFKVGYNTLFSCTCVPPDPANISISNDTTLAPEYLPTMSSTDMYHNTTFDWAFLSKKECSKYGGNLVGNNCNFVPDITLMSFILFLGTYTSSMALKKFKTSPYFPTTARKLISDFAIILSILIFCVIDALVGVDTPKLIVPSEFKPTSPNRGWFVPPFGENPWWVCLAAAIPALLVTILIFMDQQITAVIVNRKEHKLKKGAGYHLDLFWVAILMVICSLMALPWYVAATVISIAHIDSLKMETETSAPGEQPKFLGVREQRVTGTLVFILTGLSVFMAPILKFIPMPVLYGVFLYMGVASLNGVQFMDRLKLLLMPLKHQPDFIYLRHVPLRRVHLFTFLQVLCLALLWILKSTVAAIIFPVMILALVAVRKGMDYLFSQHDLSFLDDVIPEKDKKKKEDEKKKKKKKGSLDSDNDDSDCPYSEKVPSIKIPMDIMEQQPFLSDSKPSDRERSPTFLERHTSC

Amino acid sequences for entries named in this document (tags omitted).
UniProt P13569: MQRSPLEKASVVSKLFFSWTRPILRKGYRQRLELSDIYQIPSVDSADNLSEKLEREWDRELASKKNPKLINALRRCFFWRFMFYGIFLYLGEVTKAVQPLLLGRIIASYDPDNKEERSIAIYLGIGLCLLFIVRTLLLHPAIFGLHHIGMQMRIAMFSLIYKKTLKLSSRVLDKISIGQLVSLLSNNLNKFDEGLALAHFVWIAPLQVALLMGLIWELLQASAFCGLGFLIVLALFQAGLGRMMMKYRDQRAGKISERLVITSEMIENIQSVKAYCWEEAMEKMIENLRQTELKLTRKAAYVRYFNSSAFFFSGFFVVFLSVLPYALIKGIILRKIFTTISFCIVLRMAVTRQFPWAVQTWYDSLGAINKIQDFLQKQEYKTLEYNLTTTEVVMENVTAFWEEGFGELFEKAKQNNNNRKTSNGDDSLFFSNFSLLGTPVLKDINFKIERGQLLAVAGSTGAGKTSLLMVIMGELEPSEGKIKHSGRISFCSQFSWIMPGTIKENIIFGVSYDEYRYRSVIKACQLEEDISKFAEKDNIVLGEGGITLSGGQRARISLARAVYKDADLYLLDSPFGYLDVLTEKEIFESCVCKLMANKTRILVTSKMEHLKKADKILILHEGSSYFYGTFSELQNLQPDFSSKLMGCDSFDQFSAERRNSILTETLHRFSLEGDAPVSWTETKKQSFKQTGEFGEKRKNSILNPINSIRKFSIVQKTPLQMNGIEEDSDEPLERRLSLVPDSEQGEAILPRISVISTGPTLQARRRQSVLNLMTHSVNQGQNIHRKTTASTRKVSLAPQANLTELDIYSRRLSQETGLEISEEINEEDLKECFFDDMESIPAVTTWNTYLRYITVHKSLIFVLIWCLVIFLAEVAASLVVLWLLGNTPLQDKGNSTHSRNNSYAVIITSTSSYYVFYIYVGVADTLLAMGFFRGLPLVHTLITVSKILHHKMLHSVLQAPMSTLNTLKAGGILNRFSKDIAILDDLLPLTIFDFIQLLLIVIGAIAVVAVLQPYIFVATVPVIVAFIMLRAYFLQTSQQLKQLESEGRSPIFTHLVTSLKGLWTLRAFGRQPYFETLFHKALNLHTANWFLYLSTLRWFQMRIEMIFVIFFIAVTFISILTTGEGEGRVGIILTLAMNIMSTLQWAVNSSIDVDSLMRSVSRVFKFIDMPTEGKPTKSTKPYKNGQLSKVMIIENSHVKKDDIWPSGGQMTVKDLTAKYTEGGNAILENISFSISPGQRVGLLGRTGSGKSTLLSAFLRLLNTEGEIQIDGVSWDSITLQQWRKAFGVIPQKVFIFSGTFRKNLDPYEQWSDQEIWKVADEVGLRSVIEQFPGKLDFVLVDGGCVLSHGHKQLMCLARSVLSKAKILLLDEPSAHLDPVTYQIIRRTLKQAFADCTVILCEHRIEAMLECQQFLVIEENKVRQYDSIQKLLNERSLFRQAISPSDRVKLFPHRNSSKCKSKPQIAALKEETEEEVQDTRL

CFTR-GFP [2] = biological target: CFTR-GFP (UniProt P13569); assay: as above
NBCe1-B(R44A) = biological target: T2, NBCe1-B(R44A) (UniProt Q9Y6R1); assay: co-IP; lysates of transfected HEK293T cells (PBS with 1% Triton X-100, phosphatase and protease inhibitors, pH 7.4); antibodies overnight at 4 °C, Sepharose beads for 4 h, three washes, blots; some cells co-expressing E-Syt3 or E3C2C, or depleted of PI(4,5)P2 (FRB + FKBP-5PIPase, 0.5 µM rapamycin for 8 min)
T2 sequence: T1 sequence with R44A

NBCe1-B-eGFP [3] = biological target: T1, NBCe1-B-eGFP; assay: as above
CFTR-GFP [4] = biological target: CFTR-GFP (UniProt P13569); assay: as above
(Δ1-95)NBCe1-B = biological target: T3, (Δ1-95)NBCe1-B (UniProt Q9Y6R1); assay: as above
T3 sequence: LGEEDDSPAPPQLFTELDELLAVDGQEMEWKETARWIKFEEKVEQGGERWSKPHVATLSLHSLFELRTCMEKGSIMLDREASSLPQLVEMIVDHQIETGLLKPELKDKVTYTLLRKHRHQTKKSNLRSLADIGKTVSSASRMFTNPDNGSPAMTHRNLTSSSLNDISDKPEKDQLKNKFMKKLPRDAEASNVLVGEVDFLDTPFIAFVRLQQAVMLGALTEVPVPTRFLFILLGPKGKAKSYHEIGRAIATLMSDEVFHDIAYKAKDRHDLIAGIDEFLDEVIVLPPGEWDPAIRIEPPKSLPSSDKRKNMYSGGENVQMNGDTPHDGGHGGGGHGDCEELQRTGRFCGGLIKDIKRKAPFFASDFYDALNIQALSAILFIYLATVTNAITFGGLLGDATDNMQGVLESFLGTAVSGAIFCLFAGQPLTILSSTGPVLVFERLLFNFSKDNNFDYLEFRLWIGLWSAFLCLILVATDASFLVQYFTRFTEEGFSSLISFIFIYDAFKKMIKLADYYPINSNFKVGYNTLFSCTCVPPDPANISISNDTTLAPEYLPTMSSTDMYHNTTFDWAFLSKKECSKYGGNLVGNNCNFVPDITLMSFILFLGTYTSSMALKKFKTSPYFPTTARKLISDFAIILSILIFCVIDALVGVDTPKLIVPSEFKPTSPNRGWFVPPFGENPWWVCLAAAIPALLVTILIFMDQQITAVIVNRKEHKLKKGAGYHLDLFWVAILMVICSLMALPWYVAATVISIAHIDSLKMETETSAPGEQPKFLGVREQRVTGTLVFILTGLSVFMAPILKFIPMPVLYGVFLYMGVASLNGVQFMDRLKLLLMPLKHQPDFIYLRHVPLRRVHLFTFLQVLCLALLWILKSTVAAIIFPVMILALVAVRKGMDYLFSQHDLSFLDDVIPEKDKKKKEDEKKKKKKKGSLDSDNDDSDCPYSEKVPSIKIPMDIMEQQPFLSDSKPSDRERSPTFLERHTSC

Measured: binding

B1: E-Syt2 (fluorescent-tagged, FRET) (protein, UniProt A0FGR8 1-921)
chain: MTANRDAALSSHRHPGCAQRPRTPTFASSSQRRSAFGFDDGNFPGLGERSHAPGSRLGARRRAKTARGLRGHRQRGAGAGLSRPGSARAPSPPRPGGPENPGGVLSVELPGLLAQLARSFALLLPVYALGYLGLSFSWVLLALALLAWCRRSRGLKALRLCRALALLEDEERVVRLGVRACDLPAWVHFPDTERAEWLNKTVKHMWPFICQFIEKLFRETIEPAVRGANTHLSTFSFTKVDVGQQPLRINGVKVYTENVDKRQIILDLQISFVGNCEIDLEIKRYFCRAGVKSIQIHGTMRVILEPLIGDMPLVGALSIFFLRKPLLEINWTGLTNLLDVPGLNGLSDTIILDIISNYLVLPNRITVPLVSEVQIAQLRFPVPKGVLRIHFIEAQDLQGKDTYLKGLVKGKSDPYGIIRVGNQIFQSRVIKENLSPKWNEVYEALVYEHPGQELEIELFDEDPDKDDFLGSLMIDLIEVEKERLLDEWFTLDEVPKGKLHLRLEWLTLMPNASNLDKVLTDIKADKDQANDGLSSALLILYLDSARNLPSGKKISSNPNPVVQMSVGHKAQESKIRYKTNEPVWEENFTFFIHNPKRQDLEVEVRDEQHQCSLGNLKVPLSQLLTSEDMTVSQRFQLSNSGPNSTIKMKIALRVLHLEKRERPPDHQHSAQVKRPSVSKEGRKTSIKSHMSGSPGPGGSNTAPSTPVIGGSDKPGMEEKAQPPEAGPQGLHDLGRSSSSLLASPGHISVKEPTPSIASDISLPIATQELRQRLRQLENGTTLGQSPLGQIQLTIRHSSQRNKLIVVVHACRNLIAFSEDGSDPYVRMYLLPDKRRSGRRKTHVSKKTLNPVFDQSFDFSVSLPEVQRRTLDVAVKNSGGFLSKDKGLLGKVLVALASEELAKGWTQWYDLTEDGTRPQAMT
binds: NBCe1-B-eGFP [1] | CFTR-GFP [2]

B2: E-Syt3-Myc (protein, UniProt A0FGR9 1-886)
chain: MRAEEPCAPGAPSALGAQRTPGPELRLSSQLLPELCTFVVRVLFYLGPVYLAGYLGLSITWLLLGALLWMWWRRNRRGKLGRLAAAFEFLDNEREFISRELRGQHLPAWIHFPDVERVEWANKIISQTWPYLSMIMESKFREKLEPKIREKSIHLRTFTFTKLYFGQKCPRVNGVKAHTNTCNRRRVTVDLQICYIGDCEISVELQKIQAGVNGIQLQGTLRVILEPLLVDKPFVGAVTVFFLQKPHLQINWTGLTNLLDAPGINDVSDSLLEDLIATHLVLPNRVTVPVKKGLDLTNLRFPLPCGVIRVHLLEAEQLAQKDNFLGLRGKSDPYAKVSIGLQHFRSRTIYRNLNPTWNEVFEFMVYEVPGQDLEVDLYDEDTDRDDFLGSLQICLGDVMTNRVVDEWFVLNDTTSGRLHLRLEWLSLLTDQEVLTEDHGGLSTAILVVFLESACNLPRNPFDYLNGEYRAKKLSRFARNKVSKDPSSYVKLSVGKKTHTSKTCPHNKDPVWSQVFSFFVHNVATERLHLKVLDDDQECALGMLEVPLCQILPYADLTLEQRFQLDHSGLDSLISMRLVLRFLQVEERELGSPYTGPEALKKGPLLIKKVATNQGPKAQPQEEGPTDLPCPPDPASDTKDVSRSTTTTTSATTVATEPTSQETGPEPKGKDSAKRFCEPIGEKKSPATIFLTVPGPHSPGPIKSPRPMKCPASPFAWPPKRLAPSMSSLNSLASSCFDLADISLNIEGGDLRRRQLGEIQLTVRYVCLRRCLSVLINGCRNLTPCTSSGADPYVRVYLLPERKWACRKKTSVKRKTLEPLFDETFEFFVPMEEVKKRSLDVAVKNSRPLGSHRRKELGKVLIDLSKEDLIKGFSQWYELTPNGQPRS
binds: NBCe1-B(R44A) | NBCe1-B-eGFP [3] | CFTR-GFP [4] | (Δ1-95)NBCe1-B
